Laboratory results reported in paper PMC9184547, “Distinct dissociation rates of murine and human norovirus P-domain dimers suggest a role of dimer stability in virus-host interactions” (Communications Biology, 2022).
These are yes or no findings as the source states them, for the method shown. Some results given as binding are weak or reduced against the parent protein; the word gives no strength.

Protein sequences, listed by entry. Tags and fused reporters are not part of them. Residues count along the entry.
UniProt Q80J94, residues 225-541: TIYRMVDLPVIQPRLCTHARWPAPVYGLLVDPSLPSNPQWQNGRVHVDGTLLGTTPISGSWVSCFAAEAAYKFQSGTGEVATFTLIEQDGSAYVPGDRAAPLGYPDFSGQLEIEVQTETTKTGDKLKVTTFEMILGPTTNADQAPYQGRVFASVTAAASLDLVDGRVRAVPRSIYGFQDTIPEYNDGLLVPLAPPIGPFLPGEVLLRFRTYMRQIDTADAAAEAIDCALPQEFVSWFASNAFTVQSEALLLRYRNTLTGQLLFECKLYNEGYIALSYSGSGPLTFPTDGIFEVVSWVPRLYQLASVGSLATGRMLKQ

Biological target: MNV-1 (CW1) P-domain (murine norovirus MNV-1 (CW1)) (UniProt Q80J94)
Test: NMR titration; methyl TROSY and 1H,15N TROSY HSQC spectra of P-domain (50 or 100 uM) titrated with GCDCA up to 550 or 300 uM; 298 K, pH* 5.3; both purified

Substance: MNV-1 (CW1) P-domain (from UniProt Q80J94 225-541) (domain or fragment)
- binding: binds
